Source: PMC12598048
Results are given in words; binding and its absence hold for the method and conditions named. Binding calls can cover weak binding; strength is not graded here.

Target: TuMV-6K2 (yeast two-hybrid bait, pBT-STE-TuMV-6K2) (turnip mosaic virus (TuMV))
Assay: two-hybrid; preys pPR3-AtTETs or pPR3-NbTETs with bait pBT-STE-TuMV-6K2 co-transformed into yeast NMY51; ten-fold dilutions on SD/-Leu/-Trp and SD/-Leu/-Trp/-His/-Ade

B1: AtTET1 (yeast two-hybrid prey) (protein, UniProt Q9FIQ5 1-269)
chain: MPLSNNVIGCINFITVLLSIPVIGAGIWLAIGTVNSCVKLLQWPVIILGVLILLVGLAGFIGGFWRITWLLVVYLIAMLILIVLLGCLVGFIYMVTIRGSGHPEPSRAYLEYSLQDFSGWLRRRVQRSYKWERIRTCLSTTTICPELNQRYTLAQDFFNAHLDPIQSGCCKPPTKCGFTFVNPTYWISPIDMSADMDCLNWSNDQNTLCYTCDSCKAGLLANIKVDWLKADIFLLLALIGLIIVYIIGCCAFRNAETEDIFRKYKQGYT
**Q.** B1 was tested. Which binding did it give?
**A.** binds
